In article doi:10.1101/671024:
Residue numbers refer to the chain shown, from its start. In names and notes the source's numbering stands. These are yes or no findings as the source states them, for the method shown. Binding seen in cells or lysates may run through a third protein. Some entries that bind do so weakly or less than the wild type. Sequences can lack the tags named with a protein.

Key:
Test in all cases: co-IP
[1] = biological target: T1, LIN-35 (C. elegans (endogenous in late embryos)) (UniProt G5EDT1)
T1 sequence: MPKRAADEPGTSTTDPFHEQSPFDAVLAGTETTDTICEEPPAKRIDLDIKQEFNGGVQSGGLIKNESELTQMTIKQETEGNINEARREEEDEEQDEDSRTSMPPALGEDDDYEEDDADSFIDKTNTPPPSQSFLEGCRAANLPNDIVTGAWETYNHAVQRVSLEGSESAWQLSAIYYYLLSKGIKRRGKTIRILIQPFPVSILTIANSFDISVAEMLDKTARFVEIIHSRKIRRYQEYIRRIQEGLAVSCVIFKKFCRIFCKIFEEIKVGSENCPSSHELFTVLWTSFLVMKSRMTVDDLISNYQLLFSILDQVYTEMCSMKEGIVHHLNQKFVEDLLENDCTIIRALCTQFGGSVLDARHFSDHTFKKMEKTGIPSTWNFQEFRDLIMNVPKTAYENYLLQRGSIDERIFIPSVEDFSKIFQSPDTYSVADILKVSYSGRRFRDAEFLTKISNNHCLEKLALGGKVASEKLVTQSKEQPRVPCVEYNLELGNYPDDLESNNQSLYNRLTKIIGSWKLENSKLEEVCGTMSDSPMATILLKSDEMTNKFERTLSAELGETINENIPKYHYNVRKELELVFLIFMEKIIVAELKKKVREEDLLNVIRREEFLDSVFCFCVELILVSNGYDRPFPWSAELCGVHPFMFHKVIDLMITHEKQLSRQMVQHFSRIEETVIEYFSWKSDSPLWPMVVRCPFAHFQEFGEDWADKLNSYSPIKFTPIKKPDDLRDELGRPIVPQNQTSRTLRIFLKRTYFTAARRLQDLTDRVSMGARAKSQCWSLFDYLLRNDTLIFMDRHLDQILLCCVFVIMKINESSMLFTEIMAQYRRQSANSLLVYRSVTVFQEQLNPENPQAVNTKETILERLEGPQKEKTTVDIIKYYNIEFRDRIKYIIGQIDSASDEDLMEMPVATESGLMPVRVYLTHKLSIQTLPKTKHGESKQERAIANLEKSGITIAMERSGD

[2] = biological target: T2, LIN-52[C44A]::GFP::3xFLAG (lin-52(1A)) (C. elegans) (UniProt Q10120)
T2 sequence: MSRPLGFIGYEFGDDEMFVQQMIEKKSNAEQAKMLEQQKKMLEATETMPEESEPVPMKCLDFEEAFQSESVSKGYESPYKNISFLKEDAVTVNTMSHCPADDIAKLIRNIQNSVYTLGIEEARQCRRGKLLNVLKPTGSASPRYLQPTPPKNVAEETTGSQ

[3] = biological target: T3, LIN-52[L42A,C44A,E46A]::GFP::3xFLAG (lin-52(3A)) (C. elegans) (UniProt Q10120)
T3 sequence: T2 sequence with L42A, E46A

[4] = biological target: T4, LIN-52::GFP::3xFLAG (lin-52(WT)) (C. elegans) (UniProt Q10120)
T4 sequence: T2 sequence with A44C

B1: LIN-52::GFP::3xFLAG (lin-52(WT)) (protein, UniProt Q10120 1-161)
chain: T2 sequence with A44C
[1]
  binding: binds

B2: LIN-35 (protein, UniProt G5EDT1 1-961)
chain: T1 sequence
[2]
  binding: binds
[3]
  binding: no binding
[4]
  binding: binds

B3: LIN-52[C44A]::GFP::3xFLAG (lin-52(1A)) (protein, UniProt Q10120 1-161)
chain: T2 sequence
[1]
  binding: binds

B4: LIN-52[L42A,C44A,E46A]::GFP::3xFLAG (lin-52(3A)) (protein, UniProt Q10120 1-161)
chain: T2 sequence with L42A, E46A
[1]
  binding: no binding
